# In patent US9394352B2, “Immunogenic POTE peptides and methods of use” (The United States of America, as represented by the …, priority 2010, dated 2016):
# Entries after “also recorded” stand apart in the source; their conditions may differ. At least one peptide structure holds a part that was inferred or is arguable (an end, a ring closure or a residue). Where no end group is shown, it is not given here.
# Legend:
# [1] = tested on: IFN-γ secreting spleen cells; assay: ex vivo IFN-γ ELISPOT assay on splenocytes of peptide-immunized AAD mice; type: in vivo; conditions: for IFN-γ ELISPOT cross-reactive response to the wild type peptide: AAD mice immunized s.c. with the enhanced peptide; for IFN-γ response (ELISPOT spots) on stimulation with the immunizing peptide: AAD mice immunized s.c., splenocytes pooled from three mice two weeks after boost
# Procedure: (§1) FIGS. 3A and 3B are graphs showing immunogenicity of the wild type and enhanced POTE 252 epitopes in AAD mice. AAD mice were immunized subcutaneously with a mixture of peptide and cytokines in adjuvant as described in Example 1. (FIG. 3A) Two weeks after the second boost, splenocytes pooled from three mice were restimulated with splenocytes of naïve AAD mice pulsed with 1.0 μM of each peptide at different effector to target (E/T) ratios. Cells were cultured in anti-mouse IFN-γ antibody coated ELISPOT™ plates. After overnight culture, biotinylated anti-mouse IFN-γ antibodies were added to each well. ELISPOT™ substrates were added to develop the color and spots were counted by an ELISPOT™ reader (AID ELISPOT™ reader system). Figures show numbers of spots per million cells. (FIG. 3B) CTL cross-reactivity on each peptide. Two weeks after the second boost, pooled spleen cells from three mice were restimulated with irradiated splenocytes pulsed with 1.0 μM of peptide for 7 days. In a 4-hour ^51Cr release assay, CIR.AAD cells were pulsed with 1.0 μM of peptide and labeled with ^51Cr. After washing three times, target cells were mixed with different numbers of effector cells and then cultured for 4 hours before harvesting.
# FIGS. 4A-4D are graphs showing immunogenicity of the wild type and enhanced POTE 553 epitopes in AAD mice. AAD mice were immunized subcutaneously with a mixture of peptide and cytokines in adjuvant. (FIGS. 4A and 4B) Two weeks after the second boost, splenocytes pooled from three mice were restimulated with splenocytes of naïve AAD mice pulsed with 10 nM to 1.0 μM of each peptide at different E/T ratios. Cells were cultured in anti-mouse IFN-γ antibody coated ELISPOT™ plates. After overnight culture, biotinylated anti-mouse IFN-γ antibodies were added to each well. ELISPOT™ substrates were added to develop color and spots were counted by an ELISPOT™ reader (AID ELISPOT™ reader system). Figures show numbers of spots per million cells. (FIGS. 4C and 4D) CTL cross-reactivity on each peptide. Two weeks after the second boost, pooled spleen cells from three mice were restimulated with irradiated splenocytes pulsed with 1.0 μM of peptide for 7 days. In a 4-hour ^51Cr release assay, CIR.AAD cells were pulsed with 1.0 μM of peptide and labeled with ^51Cr. After washing three times, target cells were mixed with different numbers of effector cells and then cultured for 4 hours before harvesting.
# FIGS. 5A and 5B are graphs showing immunogenicity of the POTE 272 epitope in AAD mice. AAD mice were immunized subcutaneously with a mixture of peptide and cytokines in adjuvant. (FIG. 5A) Two weeks after the second boost, splenocytes pooled from three mice were restimulated with splenocytes of naïve AAD mice pulsed with 1.0 μM POTE 272 peptide at different E/T ratios. Cells were cultured in anti-mouse IFN-γ antibody coated ELISPOT™ plates. After overnight culture, biotinylated anti-mouse IFN-γ antibodies were added in each well. ELISPOT™ substrates were added to develop color and spots were counted by an ELISPOT™ reader (AID ELISPOT™ reader system). Figures show numbers of spots per million cells. (FIG. 5B) CTL reactivity on POTE 272 peptide. Two weeks after the second boost, pooled spleen cells from three mice were restimulated with irradiated splenocytes pulsed with 1.0 μM POTE 272 peptide for 7 days. In a 4-hour ^51Cr release assay, CIR.AAD cells were pulsed with 1.0 μM POTE 272 peptide and labeled with ^51Cr. After washing three times, target cells were mixed with different numbers of effector cells and then cultured for 4 hours before harvesting.
# FIGS. 6A and 6B are graphs showing immunogenicity of the wild type and enhanced POTE 323 epitopes in AAD mice. AAD mice were immunized subcutaneously with a mixture of peptide and cytokines in adjuvant. (FIG. 6A) Two weeks after the second boost, splenocytes pooled from three mice were restimulated with splenocytes of naïve AAD mice pulsed with 1.0 μM of each peptide at different E/T ratios. […]
# [2] = tested on: C1R.AAD cells pulsed with peptide; assay: 4-hour 51Cr release CTL assay after one week in vitro stimulation; type: cell-based, human; conditions: CTLs from immunized AAD mice, restimulated 7 days with 1.0 μM peptide; targets pulsed with 1.0 μM peptide
# Procedure: as §1
# FIGS. 4A-4D are graphs showing immunogenicity of the wild type and enhanced POTE 553 epitopes in AAD mice. AAD mice were immunized subcutaneously with a mixture of peptide and cytokines in adjuvant. (FIGS. 4A and 4B) Two weeks after the second boost, splenocytes pooled from three mice were restimulated with splenocytes of naïve AAD mice pulsed with 10 nM to 1.0 μM of each peptide at different E/T ratios. Cells were cultured in anti-mouse IFN-γ antibody coated ELISPOT™ plates. […] ELISPOT™ substrates were added to develop color and spots were counted by an ELISPOT™ reader (AID ELISPOT™ reader system). […]
# FIGS. 5A and 5B are graphs showing immunogenicity of the POTE 272 epitope in AAD mice. […] ELISPOT™ substrates were added to develop color and spots were counted by an ELISPOT™ reader (AID ELISPOT™ reader system). […]
# HLA-A2 molecule = target: T1, HLA-A2 molecule (Homo sapiens, UniProt P04439, D140Y/D185E/D98H/E176V/E277Q/G131W/G231S/I119V/I121R/I166T/I218V/L300P/L318F/N151K/N90K/P208A/P217A/Q86G/Q94H/R138H/R169H/T345S); assay: T2 binding assay (HLA-A2 up-regulation on TAP-deficient T2 cells); conditions: for FI0.5: peptide concentration that increases HLA-A2.1 expression by 50% over no peptide, substituted peptides and their wild types, Table 2 / FIGS. 2A-2C; for FI0.5 relative to wild-type peptide (lower FI0.5, higher affinity): compared with wild type POTE 252 or POTE 323
# T1 construct: The T2 cell line is deficient for TAP1 and TAP2 transporter proteins and expresses low levels of HLA-A2; endogenous in cells; host or cells: T2 cell line (TAP1/TAP2-deficient)
# Procedure: FIG. 1 is a graph showing binding affinity of POTE peptides to HLA-A2 molecules. Peptides were dissolved in DMSO in double-distilled water and different concentrations of peptides were added into the culture of TAP-deficient T2 cells. After overnight culture of the cells in medium supplemented with β2-microglobulin, cells were stained with anti-HLA-A2. HLA-A2 expression was quantified as fluorescence index (FI) according to the following formula: FI=[(mean fluorescence intensity with peptide−mean fluorescence intensity without peptide)/mean fluorescence intensity without peptide]. Background fluorescence without BB7.2 was subtracted for each individual value. To compare the different peptides, FI0.5 (the peptide concentration that increases HLA-A2.1 expression by 50% over no peptide control background) was calculated from the titration curve for each peptide.
# FIGS. 2A-2C are graphs showing binding affinity of substituted POTE peptides to HLA-A2 molecules. Shown are binding affinities of the substituted POTE 252 peptides (FIG. 2A), the substituted POTE 553 peptides (FIG. 2B) and the substituted POTE 323 peptides (FIG. 2C) to HLA-A2 molecules. Different concentrations of peptides were added into the culture of TAP-deficient T2 cells. After overnight culture of the cells in medium supplemented with β2-microglobulin, cells were stained with anti-HLA-A2 antibody.
# Peptide binding capacity to the HLA-A2 molecule was measured by using the T2 cell line according to a protocol described previously (Peters et al., Bioinformatics 19(14):1765-1772, 2003). T2 cells (3×10^5 cells/well) were incubated overnight in 96-well plates with culture medium (1:1 mixture of RPMI 1640/Eagle-Hank's amino acid containing 2.5% fetal bovine serum, 100 U/ml penicillin, and 100 μg/ml streptomycin) with 10 μg/ml β2-microglobulin (Sigma) and different titrated concentrations of peptides (starting from 100 μM with 2-fold serial dilution) as shown in the figures to determine the concentration giving a 50% increasing in binding. Cells were washed once with cold HBSS containing 0.1% BSA and incubated for 30 minutes at 4° C. with anti-HLA-A2.1 BB7.2 monoclonal antibody (1:40 dilution from hybridoma supernatant). After washing, cells were stained with FITC-labeled goat anti-mouse immunoglobulin (BD, San Jose, Calif.), and the level of HLA expression was measured by flow cytometry. HLA-A2 expression was quantified as fluorescence index (FI) according to the following formula: FI=[(geometric mean fluorescence intensity with peptide-geometric mean fluorescence intensity without peptide)/geometric mean fluorescence intensity without peptide]. Background fluorescence without BB7.2 was subtracted for each individual value. To compare the different peptides, FI0.5, the peptide concentration that increases HLA-A2.1 expression by 50% over no peptide control background, was calculated from the titration curve for each peptide.
# HLA-A2/POTE252 tetramer = assay: HLA-A2/peptide tetramer stain and TCR Vβ repertoire of CTLs from immunized HHD-2 mice; type: in vivo; conditions: after 1-week in vitro stimulation with cognate peptide
# Procedure: FIGS. 7A-7C are FACS plots showing HLA-A2/peptide tetramer staining and T cell receptor (TCR) repertoire determination for POTE 252- and POTE 252-9V-induced CTLs. HHD-2 mice were immunized subcutaneously with a mixture of peptide and cytokines in adjuvant. Two weeks after the second boost, pooled spleen cells from three mice were restimulated with irradiated splenocytes pulsed with 1.0 μM of peptide for 1 week. (FIG. 7A) Percentage of the HLA-A2/POTE252 tetramer-positive cells in the POTE 252- and POTE 252-9V-induced CTLs. (FIG. 7B) TCR Vβ repertoires of the tetramer^+CD8^+ T cells in POTE 252-induced CTLs. (FIG. 7C) TCR Vβ repertoires of the tetramer^+CD8^+ T cells in POTE 252-9V-induced CTLs.
# AAD or HHD-2 mice were immunized subcutaneously (s.c.) in the base of the tail with 100 μl of an emulsion containing 1:1 incomplete Freund's adjuvant (Sigma) and PBS with peptides and cytokines (50 nmol of CTL epitope, 50 nmol of hepatitis B virus core 128-140 helper epitope, 5 μg of mouse interleukin-12, and 5 μg of mouse granulocyte macrophage colony-stimulating factor). Cytokines were purchased from Peprotech (Rocky Hill, N.J.). Mice were boosted 2 weeks later, and the spleens were removed 2 weeks after the boost. For all experiments, groups of three mice were used. […]
Sequence,IFN-γ ELISPOT cross-reactive response to the wild type peptide [1],IFN-γ response (ELISPOT spots) on stimulation with the immunizing peptide [1],CTL lysis of peptide-pulsed target cells [2],FI0.5 (HLA-A2 molecule),"FI0.5 relative to wild-type peptide (lower FI0.5, higher affinity) (HLA-A2 molecule)",tetramer-positive CD8+ T cells (HLA-A2/POTE252 tetramer)
YILEEIESV [POTE 553-1Y],no cross-reactive response to wild type peptide was detected,induced some extent of IFN-γ responses only after stimulation with the same peptide,"lysed target cells pulsed with not only POTE 553-1Y, but also POTE 553 and POTE 553-2L peptides",0.024 µM,–,–
LLFEQNVDV [POTE 323-3F],some degree of IFN-γ response was also detected,induced some IFN-γ responses after stimulation with the identical peptide; also recorded: induced significant IFN-γ spots,"lysed target cells pulsed with the POTE 323-3F, as well as wild-type POTE 323",0.09 µM,about 3 fold,–
KLMAKALLV [POTE 252-9V],cross reactivity to both POTE 252 and POTE 252-9V,induced a significant number of IFN-γ spots,lysed target cells pulsed with the wild-type POTE 252 as well as POTE 252-9V,0.8 µM,~2 fold,6.8%
